Results are given in words; binding and its absence hold for the method and conditions named. In cells and extracts the contact can be indirect. These calls come from enrichment with a bait or labelling near it, and not all partners need be listed.
B1: PDS5 cohesin associated factor B (PDS5B), endogenous (protein, UniProt Q9NTI5 1-1447)
chain: MAHSKTRTNDGKITYPPGVKEISDKISKEEMVRRLKMVVKTFMDMDQDSEEEKELYLNLALHLASDFFLKHPDKDVRLLVACCLADIFRIYAPEAPYTSPDKLKDIFMFITRQLKGLEDTKSPQFNRYFYLLENIAWVKSYNICFELEDSNEIFTQLYRTLFSVINNGHNQKVHMHMVDLMSSIICEGDTVSQELLDTVLVNLVPAHKNLNKQAYDLAKALLKRTAQAIEPYITNFFNQVLMLGKTSISDLSEHVFDLILELYNIDSHLLLSVLPQLEFKLKSNDNEERLQVVKLLAKMFGAKDSELASQNKPLWQCYLGRFNDIHVPIRLECVKFASHCLMNHPDLAKDLTEYLKVRSHDPEEAIRHDVIVSIVTAAKKDILLVNDHLLNFVRERTLDKRWRVRKEAMMGLAQIYKKYALQSAAGKDAAKQIAWIKDKLLHIYYQNSIDDRLLVERIFAQYMVPHNLETTERMKCLYYLYATLDLNAVKALNEMWKCQNLLRHQVKDLLDLIKQPKTDASVKAIFSKVMVITRNLPDPGKAQDFMKKFTQVLEDDEKIRKQLEVLVSPTCSCKQAEGCVREITKKLGNPKQPTNPFLEMIKFLLERIAPVHIDTESISALIKQVNKSIDGTADDEDEGVPTDQAIRAGLELLKVLSFTHPISFHSAETFESLLACLKMDDEKVAEAALQIFKNTGSKIEEDFPHIRSALLPVLHHKSKKGPPRQAKYAIHCIHAIFSSKETQFAQIFEPLHKSLDPSNLEHLITPLVTIGHIALLAPDQFAAPLKSLVATFIVKDLLMNDRLPGKKTTKLWVPDEEVSPETMVKIQAIKMMVRWLLGMKNNHSKSGTSTLRLLTTILHSDGDLTEQGKISKPDMSRLRLAAGSAIVKLAQEPCYHEIITLEQYQLCALAINDECYQVRQVFAQKLHKGLSRLRLPLEYMAICALCAKDPVKERRAHARQCLVKNINVRREYLKQHAAVSEKLLSLLPEYVVPYTIHLLAHDPDYVKVQDIEQLKDVKECLWFVLEILMAKNENNSHAFIRKMVENIKQTKDAQGPDDAKMNEKLYTVCDVAMNIIMSKSTTYSLESPKDPVLPARFFTQPDKNFSNTKNYLPPEMKSFFTPGKPKTTNVLGAVNKPLSSAGKQSQTKSSRMETVSNASSSSNPSSPGRIKGRLDSSEMDHSENEDYTMSSPLPGKKSDKRDDSDLVRSELEKPRGRKKTPVTEQEEKLGMDDLTKLVQEQKPKGSQRSRKRGHTASESDEQQWPEEKRLKEDILENEDEQNSPPKKGKRGRPPKPLGGGTPKEEPTMKTSKKGSKKKSGPPAPEEEEEEERQSGNTEQKSKSKQHRVSRRAQQRAESPESSAIESTQSTPQKGRGRPSKTPSPSQPKKNVRVGRSKQAATKENDSSEEVDVFQGSSPVDDIPQEETEEEEVSTVNVRRRSAKRERR
B2: PDS5 cohesin associated factor A (PDS5A), endogenous (protein, UniProt Q29RF7 1-1337)
chain: MDFTAQPKPATALCGVVSADGKIAYPPGVKEITDKITTDEMIKRLKMVVKTFMDMDQDSEDEKQQYLPLALHLASEFFLRNPNKDVRLLVACCLADIFRIYAPEAPYTSHDKLKDIFLFITRQLKGLEDTKSPQFNRYFYLLENLAWVKSYNICFELEDCNEIFIQLFRTLFSVINNSHNKKVQMHMLDLMSSIIMEGDGVTQELLDSILINLIPAHKNLNKQSFDLAKVLLKRTVQTIEACIANFFNQVLVLGRSSVSDLSEHVFDLIQELFAIDPHLLLSVMPQLEFKLKSNDGEERLAVVRLLAKLFGSKDSDLATQNRPLWQCFLGRFNDIHVPVRLESVKFASHCLMNHPDLAKDLTEYLKVRSHDPEEAIRHDVIVTIITAAKRDLALVNDQLLGFVRERTLDKRWRVRKEAMMGLAQLYKKYCLHGEAGKEAAEKVSWIKDKLLHIYYQNSIDDKLLVEKIFAQYLVPHNLETEERMKCLYYLYASLDPNAVKALNEMWKCQNMLRSHVRELLDLHKQPTSEANCSAMFGKLMTIAKNLPDPGKAQDFVKKFNQVLGDDEKLRSQLELLISPTCSCKQADICVREIARKLANPKQPTNPFLEMVKFLLERIAPVHIDSEAISALVKLMNKSIEGTADDEEEGVSPDTAIRSGLELLKVLSFTHPTSFHSAETYESLLQCLRMEDDKVAEAAIQIFRNTGHKIETDLPQIRSTLIPILHQKAKRGTPHQAKQAVHCIHAIFTNKEVQLAQIFEPLSRSLNADVPEQLITPLVSLGHISMLAPDQFASPMKSVVANFIVKDLLMNDRSTGEKNGKLWSPDEEVSPEVLAKVQAIKLLVRWLLGMKNNQSKSANSTLRLLSAMLVSEGDLTEQKRISKSDMSRLRLAAGSAIMKLAQEPCYHEIITPEQFQLCALVINDECYQVRQIFAQKLHKALVKLLLPLEYMAIFALCAKDPVKERRAHARQCLLKNISIRREYIKQNPMATEKLLSLLPEYVVPYMIHLLAHDPDFTRSQDVDQLRDIKECLWFMLEVLMTKNENNSHAFMKKMAENIKLTRDAQSPDESKTNEKLYTVCDVALCVINSKSALCNADSPKDPVLPMKFFTQPEKDFCNDKSYISEETRVLLLTGKPKPAGVLGAVNKPLSATGRKPYVRSTGTETGSNINVNSELNPSTGNRSREQSSEAAETGVSENEENPVRIISVTPVKNIDPVKNKEINSDQATQGNISSDRGKKRTVTAAGAENIQQKTDEKVDESGPPAPSKPRRGRRPKSESQGNATKNDDLNKPINKGRKRAAVGQESPGGLEAGNAKAPKLQDLAKKAAPAERQIDLQR

Sequences of proteins named here, by UniProt entry; tags and fusion partners are left off.
UniProt Q92963: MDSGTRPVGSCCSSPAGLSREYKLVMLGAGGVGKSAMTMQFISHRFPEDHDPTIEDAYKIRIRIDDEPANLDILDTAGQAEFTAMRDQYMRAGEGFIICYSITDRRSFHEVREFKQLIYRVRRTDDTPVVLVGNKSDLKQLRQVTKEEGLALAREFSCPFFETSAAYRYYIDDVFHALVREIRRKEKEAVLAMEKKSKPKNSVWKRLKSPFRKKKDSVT
UniProt Q9UQE7: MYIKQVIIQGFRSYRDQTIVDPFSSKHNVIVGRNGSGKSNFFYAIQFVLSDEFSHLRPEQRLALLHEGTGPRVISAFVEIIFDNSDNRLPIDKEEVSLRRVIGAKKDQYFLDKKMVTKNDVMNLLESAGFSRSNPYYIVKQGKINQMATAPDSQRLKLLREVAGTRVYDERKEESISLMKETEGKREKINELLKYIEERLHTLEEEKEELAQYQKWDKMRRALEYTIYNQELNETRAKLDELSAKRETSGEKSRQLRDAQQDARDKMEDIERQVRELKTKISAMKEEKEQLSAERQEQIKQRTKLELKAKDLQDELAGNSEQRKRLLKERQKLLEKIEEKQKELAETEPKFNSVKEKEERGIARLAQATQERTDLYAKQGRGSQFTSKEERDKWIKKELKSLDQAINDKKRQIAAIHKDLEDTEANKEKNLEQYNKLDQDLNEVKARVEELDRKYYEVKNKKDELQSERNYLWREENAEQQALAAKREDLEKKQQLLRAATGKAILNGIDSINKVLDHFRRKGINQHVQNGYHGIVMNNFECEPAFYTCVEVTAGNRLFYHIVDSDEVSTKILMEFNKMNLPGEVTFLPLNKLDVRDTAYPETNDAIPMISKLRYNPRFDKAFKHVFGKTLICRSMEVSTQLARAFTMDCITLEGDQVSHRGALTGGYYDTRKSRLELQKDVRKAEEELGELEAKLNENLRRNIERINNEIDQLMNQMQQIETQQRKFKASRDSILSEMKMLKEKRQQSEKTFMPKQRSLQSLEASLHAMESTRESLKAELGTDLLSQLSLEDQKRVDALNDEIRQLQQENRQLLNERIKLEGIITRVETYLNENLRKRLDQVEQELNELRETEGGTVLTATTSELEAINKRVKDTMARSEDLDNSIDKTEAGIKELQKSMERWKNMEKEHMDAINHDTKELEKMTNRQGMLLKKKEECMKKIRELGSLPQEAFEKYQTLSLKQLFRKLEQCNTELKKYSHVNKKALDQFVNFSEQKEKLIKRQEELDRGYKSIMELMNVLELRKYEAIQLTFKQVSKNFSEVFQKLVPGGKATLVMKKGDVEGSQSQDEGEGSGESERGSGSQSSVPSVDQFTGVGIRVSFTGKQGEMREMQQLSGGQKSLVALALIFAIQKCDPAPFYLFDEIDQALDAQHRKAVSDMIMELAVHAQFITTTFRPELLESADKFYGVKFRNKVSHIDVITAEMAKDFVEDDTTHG

What follows are molecules tested against Myc-tagged RIT1 (Ras-like-without-CAAX-1), expressed in HCC cells (human) (UniProt Q92963) (assay: affinity purification with mass spectrometry; anti-Myc immunoprecipitate against control IgG from HCC-LY10, Huh7 and Hep3B cells transfected with Myc-tagged RIT1 plasmid; hits: abundance three times higher than in the IgG group, intersected between the cell lines).

binding, binds:
structural maintenance of chromosome 3 (SMC3), endogenous (from UniProt Q9UQE7 1-1217)
B1
B2

Reference: PMC10685607
